Source: PubChem BioAssay AID504467 (National Center for Advancing Translational Sciences (NCATS), 2011)
Out of some 330,000 compounds screened, about 7,700 (2.3%) were called active. The inconclusive results got no clear call from the source; some entries with a clear call stand among them for comparison. Calls follow the shape of the dose curve; as a rule, active = well fitted inhibition curve with a large enough effect; inconclusive = small, poorly fitted or top-dose-only effect, or effect the other way; inactive = flat fitted curve, though single readings scatter. A potency beside an inconclusive call is a rough fit, not a confirmed value.

Assay: qHTS screen for small molecules that inhibit ELG1-dependent DNA repair in human embryonic kidney (HEK293T) cells expressing luciferase-tagged ELG1; also: nearly all actives have a fitted effect of over 55% in size
Conditions: HEK293T ELG1-luciferase reporter, luminescence, 16 h, DNA damage induced by 5-fluorouridine; series mostly up to 46.1 µM
Summary of the method: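 HEK293T cells expressing luciferase-tagged ELG1 (2,000/well) received 5-Fluorouridine plus compound or DMSO for 16 hr at 37 °C. Luciferase was read by ONE-Glo luminescence after 30 min at room temperature.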
Potency is read from the fitted curve at half-maximal effect.

Row | Structure (SMILES) | Potency
1 | COc1ccc2c(c1)c(C(C)=O)c(C)n2-c1ccccc1 | inconclusive: 20.6 µM [inhibitor, partial curve]
2 | CC1(c2nnc(-c3cccc(Cl)c3)o2)CC(c2cccc([N+](=O)[O-])c2)=NO1 (stereo not drawn) | inconclusive: 20.6 µM [inhibitor, partial curve, poor fit]
3 | COc1ccc(CCN2C(=NC(=O)CCC(=O)O)SC3CS(=O)(=O)CC32)cc1OC (stereo not drawn) | inactive
4 | O=C(CN1CCN(c2ccccc2O)CC1)Nc1ccccc1C(=O)NCCc1ccccc1 | inconclusive: 20.6 µM [inhibitor, single point]
5 | Fc1ccc(NC(=S)Nc2cccnc2)cc1Cl | inconclusive: 29.1 µM [inhibitor, single point]
6 | COCCCNC(=O)CC1C[C@H](C(=O)N(C(C)C)C(C)C)[C@@]2(C)c3[nH]c4ccc(OC)cc4c3CCN2C1=O (stereo partly drawn) | inconclusive: 25.9 µM [activator, partial curve, poor fit]
7 | CC(NC(=O)c1ccc(CS(=O)(=O)Cc2ccccc2F)o1)c1ccc2c(c1)OCCO2 (stereo not drawn) | inconclusive: 25.9 µM [inhibitor, single point]
8 | CC(=O)COc1ccc2c(C)c(C)c(=O)oc2c1 | inconclusive: 18.4 µM [activator, partial curve]
9 | CC(Sc1ncnc2sc(-c3ccccc3)cc12)C(N)=O (stereo not drawn) | inconclusive: 4.11 µM [activator, full curve, poor fit]
10 | COc1ccc(C(c2nnnn2Cc2cccs2)N2CCN(c3ccccc3)CC2)cc1OC (stereo not drawn) | inconclusive: 23.1 µM [inhibitor, partial curve, poor fit]
11 | CCc1ccc(-c2csc3ncn(CC(=O)N4CCOCC4)c(=O)c23)cc1 | inconclusive: 16.4 µM [inhibitor, partial curve, poor fit]
12 | O=C(Cc1csc(NC(=O)Nc2ccc(Cl)cc2)n1)NCc1ccccn1 | inconclusive: 2.91 µM [activator, full curve]
13 | COc1ccc(C(=O)COC(=O)c2cc(S(=O)(=O)N3CCCCC3)ccc2N2CCOCC2)c(OC)c1 | inconclusive: 4.61 µM [inhibitor, partial curve]
14 | CC(Oc1ccc2ccc(=O)oc2c1)C(=O)NCC1CCC(C(=O)O)CC1 (stereo not drawn) | inconclusive: 0.651 µM [activator, single point]
15 | CCn1ccc(C(=O)Nc2cccc(Cl)c2)n1 | inconclusive: 16.4 µM [activator, partial curve]
16 | Cc1cccc(COC(=O)CCCNC(=O)c2ccc(Cl)cc2)c1 | inactive
17 | CSCCC(NS(=O)(=O)c1ccc2c(c1)c(=O)n(C)c(=O)n2C)C(=O)NC1CCN(Cc2ccccc2)CC1 (stereo not drawn) | inactive
18 | C=C1CC(C(=O)N/N=C/c2ccccc2)C1 | inconclusive: 10.3 µM [activator, partial curve]
19 | NC1=NC(=Nc2ccc(S(N)(=O)=O)cc2)c2ccccc21 | inconclusive: 16.4 µM [activator, single point]
20 | CCc1ccc(NC(=O)N2CCC(c3ccccc3)C2)cc1 (stereo not drawn) | inconclusive: 5.17 µM [activator, partial curve]
21 | CCOc1ccccc1Oc1cn[nH]c1-c1ccc(O)cc1O | inactive
22 | COCc1ccc(C(=O)NC2CCSc3ccccc32)cc1 (stereo not drawn) | inconclusive: 25.9 µM [activator, single point]

Row | Structure (SMILES) | Potency
23 | COc1ccc(-c2cc(=O)c3cc(OC)ccc3o2)cc1 | inconclusive: 1.16 µM [activator, partial curve]
24 | COc1ccc(NC(=O)C(=O)NCCN2CCN(C(=O)c3ccc(C(C)(C)C)cc3)CC2)cc1 | inactive
25 | CCOc1cccc(/C=N/N=C/c2cccc(OCC)c2O)c1O | inactive
26 | Cc1ccccc1CSCCNC(=O)c1ccc(N(C)S(=O)(=O)c2ccccc2)cc1 | inconclusive: 23.1 µM [inhibitor, single point]
27 | O=C1OC(=O)c2cc([N+](=O)[O-])ccc21 | inconclusive: 6.51 µM [activator, single point]
28 | Cc1ccsc1C(=O)NNC(=O)c1ccccc1F | inconclusive: 16.4 µM [activator, partial curve]
29 | O=C(CCc1ccc(S(=O)(=O)N2CCOCC2)cc1)OCC(=O)c1ccccc1F | inconclusive: 14.6 µM [activator, single point]
30 | Cc1[nH]c2ccccc2c1/C=N/Nc1nncn1N | inconclusive: 29.1 µM [activator, single point]
31 | Cc1cc(C(F)(F)F)nn1Cc1n[nH]c(=S)n1Cc1ccccc1 | inactive
32 | COC(=O)c1scc(S(=O)(=O)C(C)C)c1N/N=C(\C#N)C(=O)c1ccc(Cl)cc1 | active: 13 µM
33 | Cc1ccc(CN(CC2CCCO2)C(=O)CN2C(=O)C(C(C)C)Oc3ccccc32)o1 (stereo not drawn) | inconclusive: 32.6 µM [inhibitor, partial curve, poor fit]
34 | CCOC(=O)N1CCN(C(=O)c2oc3ccc(S(=O)(=O)N4CCCCCC4)cc3c2C)CC1 | inconclusive: 18.4 µM [inhibitor, single point]
35 | COc1ccc(CN(C)Cc2nc3scc(-c4ccccc4)c3c(=O)[nH]2)cc1OC | active: 16.4 µM
36 | CC(=O)Nc1ccc(NC(=O)C(NS(=O)(=O)c2cccc3nsnc23)C(C)C)cc1 (stereo not drawn) | inconclusive: 23.1 µM [activator, partial curve, poor fit]
37 | CCCCCSc1nnc(N)s1 | inconclusive: 20.6 µM [activator, single point]
38 | O=C(NC1CCN(C(=O)NCc2ccccc2)CC1)c1ccccc1 | inactive
39 | Cc1cc(C)cc(-n2cc(C(=O)O)c(=O)cc2C)c1 | inconclusive: 25.9 µM [inhibitor, partial curve, poor fit]
40 | O=C(c1ccc(S(=O)(=O)NCc2ccco2)cc1)N1CCN(Cc2ccc3c(c2)OCO3)CC1 | inconclusive: 20.6 µM [inhibitor, single point]
41 | COc1ccc(C(=O)NNC2=NCCCCC2)cc1 | inactive
42 | Cc1ccc(/C=N/NC(=O)Cn2nnc(N)n2)cc1 | inactive
43 | CSc1nnc(-c2sc3cc(C(F)(F)F)cnc3c2-c2ccccc2)n1C | inconclusive: 7.31 µM [inhibitor, partial curve]

Sorted by length of the SMILES (high to low): some entries from above.
Row | Structure (SMILES) | Potency
12 | O=C(Cc1csc(NC(=O)Nc2ccc(Cl)cc2)n1)NCc1ccccn1 | inconclusive: 2.91 µM [activator, full curve]
20 | CCc1ccc(NC(=O)N2CCC(c3ccccc3)C2)cc1 (stereo not drawn) | inconclusive: 5.17 µM [activator, partial curve]
30 | Cc1[nH]c2ccccc2c1/C=N/Nc1nncn1N | inconclusive: 29.1 µM [activator, single point]
